Source: the supplement of paper PMC10663445
Structures can show the parent of a compound that is named as a salt. This is one part of the list. Repeats are few or missing, and single values can be far off.

test system: hsa-miR-132-3p; assay: miR-132-3p level in NGN2-iNs after compound treatment (TMM-normalised, ComBat batch-corrected) (batch-corrected normalised expression (arbitrary units)); higher = higher miR-132-3p expression; conditions: 10 µM; 24 h; human iPSC-derived NGN2 neurons (BR43)

Structure (SMILES)	miR-132-3p level in NGN2-iNs
O=S(=O)(O)NC1CCCCC1 [Cyclamic  acid]	-0.919
COc1ccc([C@]2(C#N)CC[C@@H](C(=O)O)CC2)cc1OC1CCCC1 [Cilomilast]	1.03
O=c1[nH]c(=O)n(C2CCCO2)cc1F (configuration not stated)	1.37
CCOC(=O)Nc1cc(-c2ccc(C)c(NS(C)(=O)=O)c2)nn2c(C)nnc12 [Bromosporine]	0.111
C[C@@H]1CCN(C(=O)CC#N)C[C@@H]1N(C)c1ncnc2[nH]ccc12	-0.463
Nc1cc(C(Cl)=C(Cl)Cl)c(S(N)(=O)=O)cc1S(N)(=O)=O [Clorsulon]	1.77
Cc1ccccc1CN1C2=NCCN2C(=O)C2=C1CCN(Cc1ccccc1)C2 [TIC10 Analogue]	-0.518
COc1ccc([C@@H]2CC(=O)c3c(O)cc(O[C@@H]4O[C@H](CO)[C@@H](O)[C@H](O)[C@H]4O[C@@H]4O[C@@H](C)[C@H](O)[C@@H](O)[C@H]4O)cc3O2)cc1O [Neohesperidin]	-0.439
CC(=O)OCC(CCn1cnc2cnc(N)nc21)COC(C)=O [Famciclovir]	1.44
C=CC(=O)Nc1cccc(Oc2nc(Nc3ccc(N4CCN(C)CC4)cc3OC)ncc2Cl)c1	0.398
CC(/C=C1\SC(=S)N(CC(=O)O)C1=O)=C\c1ccccc1 [Epalrestat]	-0.23
COC(=O)CCSCc1ccc(-c2onc(C)c2NC(=O)OC(C)c2ccccc2Cl)cc1 (configuration not stated)	-1.56
Cc1nc(=O)c2cc(CN(C)c3ccc(C(=O)N[C@@H](CCC(=O)O)C(=O)O)s3)ccc2[nH]1 [Raltitrexed]	0.423
O=c1oc2ccccc2c(O)c1Cc1c(O)c2ccccc2oc1=O [Dicoumarol]	1.92
CS(=O)(=O)N1CCc2c(-c3cnc(N)nc3)nc(N3CCOCC3)nc21	0.352
COc1ccc(C2CNC(=O)C2)cc1OC1CCCC1 (configuration not stated) [Rolipram]	1.33
COc1ccc(C2CNC(=O)C2)cc1OC1CCCC1 (stereo not drawn) [S- (+)-Rolipram]	0.326
CC(=O)Nc1nc(C)c(-c2ccc(Cl)c(S(=O)(=O)NCCO)c2)s1	0.636
O=C1C[C@@H](c2ccc(O)cc2)Oc2cc(O)cc(O)c21 [Naringenin]	0.719
CCC(=O)O[C@]1(C(=O)CCl)[C@@H](C)C[C@H]2[C@@H]3CCC4=CC(=O)C=C[C@]4(C)[C@@]3(F)[C@@H](O)C[C@@]21C [Clobetasol propionate]	-0.326
O=S(=O)(O)c1cc(O)ccc1O [Ethamsylate]	-0.496
COc1ccc(F)c(F)c1C(=O)c1cnc(NC2CCN(S(C)(=O)=O)CC2)nc1N	-0.0741
CCCCC(F)(F)[C@@]1(O)CC[C@H]2[C@@H](CC(=O)[C@@H]2CCCCCCC(=O)O)O1 [Lubiprostone]	-1.19
CCOC(=O)[C@H](CCc1ccccc1)N[C@H]1CS[C@H](c2cccs2)CN(CC(=O)O)C1=O [Temocapril HCl]	0.0607
CC(NC(=O)C(O)c1cc(F)cc(F)c1)C(=O)NC1C(=O)N(C)c2ccccc2-c2ccccc21 (configuration not stated)	-0.795
CN(C)c1nc(N(C)C)nc(N(C)C)n1 [Altretamine]	0.0364

Structure (SMILES)	miR-132-3p level in NGN2-iNs
COc1cc2c(cc1-c1c(C)noc1C)ncc1[nH]c(=O)n([C@H](C)c3ccccn3)c12	0.893
Nc1nc2n[nH]nc2c(=O)[nH]1 [Azaguanine-8]	-0.483
O=C(O)c1cc(-c2ccccc2)nc2ccccc12 [Cinchophen]	0.52
CC(=O)O[C@]1(C(C)=O)CC[C@H]2[C@@H]3C[C@H](C)C4=CC(=O)CC[C@]4(C)[C@H]3CC[C@@]21C [Medroxyprogesterone acetate]	-0.733
Cn1c(=O)cc(N2CCCC(N)C2)n(Cc2ccccc2C#N)c1=O (configuration not stated) [Alogliptin(SYK-322)benzoate]	0.224
C[C@H]1C[C@@H]2[C@H]([C@@H](O)C[C@@]3(C)[C@H]2CC[C@]3(O)C(=O)CO)[C@@]2(C)C=CC(=O)C=C12 [Methylprednisolone]	-0.346
COc1ccccc1OCC(O)CN1CCN(CC(=O)Nc2c(C)cccc2C)CC1 (configuration not stated) [Ranolazine]	-0.109
COc1ccccc1OCC(O)CN1CCN(CC(=O)Nc2c(C)cccc2C)CC1 (configuration not stated) [Ranolazine 2HCl]	0.461
COc1cc([C@@H]2c3cc4c(cc3[C@@H](O[C@@H]3O[C@@H]5CO[C@@H](C)O[C@H]5[C@H](O)[C@H]3O)[C@H]3COC(=O)[C@H]23)OCO4)cc(OC)c1O [Etoposide]	1.47
CCCNCC(O)COc1ccccc1C(=O)CCc1ccccc1 (configuration not stated) [Propafenone HCl]	-0.751
NC(=O)C(c1ccccc1)(c1ccccc1)[C@@H]1CCN(CCc2ccc3c(c2)CCO3)C1 [Darifenacin HBr]	-0.285
COc1ccc(S(=O)(=O)N(C(C)=O)c2ccccc2/C=C/c2cc[n+]([O-])cc2)cc1	1.31
Cc1c(F)cc(C(=O)NC2CC2)cc1-c1ccc(C(=O)NCC(C)(C)C)cn1	1.14
CC(C)c1cc(-c2ccc(F)c3ccccc23)nc(N)n1	0.301
O=C(NOC[C@H](O)CO)c1ccc(F)c(F)c1Nc1ccc(I)cc1F	-0.136
Cc1cc(C)c(/C=C2\C(=O)Nc3ccccc32)[nH]1 [Semaxanib (SU5416)]	0.0616
O=c1cc[nH]c(=S)[nH]1 [2-Thiouracil]	-0.884
Cc1cccc(C#Cc2ccccc2)n1	-0.245
CC(C)(C)c1ccc(-c2nc3ccccc3[nH]2)cc1	-0.389
O=C(/C=C/c1ccc(CN(CCO)CCc2c[nH]c3ccccc23)cc1)NO [Dacinostat (LAQ824)]	0.591
CN1CCN(CCOc2cc(OC3CCOCC3)c3c(Nc4c(Cl)ccc5c4OCO5)ncnc3c2)CC1 [Saracatinib (AZD0530)]	-2.85
CC1Cc2ccccc2N1NC(=O)c1ccc(Cl)c(S(N)(=O)=O)c1 (configuration not stated) [Indapamide]	-0.0302
C=CC(=O)Nc1ccc2ncnc(Nc3cccc(Br)c3)c2c1	0.667
CCC(=O)c1c(O)cc(O)cc1O [Flopropione]	-0.16
CCN=C1N[C@@H]2[C@@H](O)[C@H](O)[C@@H](CO)O[C@@H]2S1 [Thiamet G]	0.994
CCCCCCCCCCCCCCCC(=O)O[C@@H]1[C@@H](O)[C@@H](O)[C@@H]([C@H](NC(=O)[C@@H]2C[C@@H](CCC)CN2C)[C@H](C)Cl)O[C@@H]1SC [Clindamycin palmitate HCl]	-0.584

Four entries from above in a different format:
Structure (SMILES) | miR-132-3p level in NGN2-iNs
Cc1cccc(C#Cc2ccccc2)n1 | -0.245
CC(C)(C)c1ccc(-c2nc3ccccc3[nH]2)cc1 | -0.389
O=C(/C=C/c1ccc(CN(CCO)CCc2c[nH]c3ccccc23)cc1)NO [Dacinostat (LAQ824)] | 0.591
CN1CCN(CCOc2cc(OC3CCOCC3)c3c(Nc4c(Cl)ccc5c4OCO5)ncnc3c2)CC1 [Saracatinib (AZD0530)] | -2.85

(listing goes on)

Structure (SMILES)	miR-132-3p level in NGN2-iNs
C[C@@H]1C[C@H]2[C@@H]3CCC4=CC(=O)C=C[C@]4(C)[C@@]3(F)[C@@H](O)C[C@]2(C)[C@@]1(O)C(=O)CO [Dexamethasone (DHAP)]	1.14
CC1(C)O[C@@H]2C[C@H]3[C@@H]4CCC5=CC(=O)C=C[C@]5(C)[C@@]4(F)[C@@H](O)C[C@]3(C)[C@]2(C(=O)CO)O1 [Triamcinolone Acetonide]	0.678
O=C(O)CCCc1ccccc1 [Sodium Phenylbutyrate]	-0.348
COc1ccccc1S(=O)(=O)Nc1ccc2c(c1)CN(C)C(=O)N2	-0.765
FC(F)c1nc2ccccc2n1-c1nc(N2CCOCC2)nc(N2CCOCC2)n1	0.236
Cc1nnc(NS(=O)(=O)c2ccc(N)cc2)s1 [Sulfamethizole]	-0.715
CNC(=O)[C@H](Cc1c[nH]c2ccccc12)NC(=O)[C@@H](CC(=O)NO)CC(C)C [Ilomastat]	-0.944
C[C@H]1C[C@H]2[C@@H]3CCC4=CC(=O)C=C[C@]4(C)[C@@]3(F)[C@@H](O)C[C@]2(C)[C@@]1(O)C(=O)CO [Betamethasone]	0.197
Oc1ccc(OCc2ccccc2)cc1 [Monobenzone]	-0.0882
Cc1cc(Nc2ncnc3ccc(-c4ccc(CNCCS(C)(=O)=O)o4)cc23)ccc1Oc1ccn2ncnc2c1 [HER2-Inhibitor-1]	0.809
Cc1ccc(Cl)c(Nc2ccccc2C(=O)O)c1Cl [Meclofenamate Sodium]	-1.31
O=C(NCCO[N+](=O)[O-])c1cccnc1 [Nicorandil]	0.965
O=C1Nc2ccc(I)cc2C1=Cc1cc(Br)c(O)c(Br)c1	-0.478
CCN1CCN(C(=O)N[C@@H](C(=O)N[C@@H]2C(=O)N3C(C(=O)O)=C(CSc4nnnn4C)CS[C@H]23)c2ccc(O)cc2)C(=O)C1=O [Cefoperazone]	-0.215
CCOc1nc2cccc(C(=O)O)c2n1Cc1ccc(-c2ccccc2-c2noc(=O)[nH]2)cc1 [Azilsartan]	0.695
COCCOC(=O)C1=C(C)NC(C)=C(C(=O)OC/C=C/c2ccccc2)C1c1cccc([N+](=O)[O-])c1 (configuration not stated) [Cilnidipine]	-1.39
Cc1cc([C@@H](C)Nc2ccccc2C(=O)O)c2nc(N3CCOCC3)cc(=O)n2c1	0.376
O=c1c(-c2ccc(O)cc2)coc2c([C@@H]3O[C@H](CO)[C@@H](O)[C@H](O)[C@H]3O)c(O)ccc12 [Puerarin]	-0.584
CNC(=O)c1cc(COc2nnc(Nc3ccc(Cl)cc3)c3ccoc23)ccn1 [Telatinib]	-0.0823
CCCc1nc(C)c2c(=O)nc(-c3cc(S(=O)(=O)N4CCN(CC)CC4)ccc3OCC)[nH]n12 [Vardenafil HCl Trihydrate]	-0.731
O=C(O)/C=C/c1ccc(Cn2ccnc2)cc1 [Ozagrel HCl]	0.202
O=C(O)/C=C/c1ccc(Cn2ccnc2)cc1 [Ozagrel]	0.172
COc1cc2nccc(Oc3ccc(NC(=O)C4(C(=O)Nc5ccc(F)cc5)CC4)cc3)c2cc1OC	-0.533
COc1cc2nccc(Oc3ccc(NC(=O)C4(C(=O)Nc5ccc(F)cc5)CC4)cc3)c2cc1OC [Cabozantinib malate (XL184)]	-1.49
Cc1c(-c2ccnn2C)cc(C(=O)NCc2ccc(S(C)(=O)=O)cn2)c(=O)n1-c1cccc(C(F)(F)F)c1 [Alvelestat (AZD9668)]	-1.18
